Test results: patent US5486595A (Centecor, Inc., priority 1994, dated 1996)

Key:
Conditions in all cases: whole synthesis, scale 0.5 mmol
[1] = general procedure: Boc solid-phase peptide synthesis; 4-Methyl benzhydrylamine resin (Boc-Leu-PAM resin for one peptide)
[2] = general procedure: Boc solid-phase peptide synthesis; 4-Methyl benzhydrylamine resin
[3] = general procedure: Boc solid-phase peptide synthesis; Boc-Leu-PAM resin

Substance | crude mass [1] | other results
Prolyl-glutaminyl-isoleucyl-glutamyl-asparaginyl-valyl-lysyl-glycyl-threonyl-glutamyl-asparaginyl-seryl-glycyl-threonyl-threonine Amide | 790 mg | 
Acetyl-glutaminyl-tyrosyl-arginyl-histidyl-tyrosyl-tryptophyl-seryl-glutamyl-asparaginyl-leucyl-phenylalanyl-glutaminyl-alanyl-phenylalanyl-asparagineAmide | 780 mg | 
Glutaminyl-glutamyl-lysyl-glutaminyl-asparaginyl-threonyl-valyl-alanyl-threonyl-alanyl-histidyl-alanyl-glycyl-phenylalanyl-phenylalanyl-leucyl-arginyl-glutamyl-asparaginyl-glutamic Acid Amide | 976 mg | 
Aspartyl-threonyl-valyl-alanyl-glycyl-alanyl-arginyl-lysyl-asparaginyl-glutaminyl-tyrosyl-arginyl-histidyl-tyrosyl-tryptophan Amide | 1190 mg | 
Acetyl-alanyl-phenylalanyl-asparaginyl-alanyl-seryl-leucyl-alanyl-leucyl-asparaginyl-glycyl-threonyl-valyl-histidyl-leucyl-serine Amide | 585 mg | 
Leucyl-tyrosyl-asparaginyl-aspartyl-alanyl-prolyl-glycyl-prolyl-glycyl-glutaminyl-aspartyl-threonyl-aspartyl-alanyl-arginine Amide |  | crude mass [2]: 720 mg
Seryl-leucyl-glutamyl-alanyl-threonyl-lysyl-leucyl-alanyl-leucyl-prolyl-glutaminyl-isoleucyl-glutamyl-asparaginyl-valine Amide | 815 mg | 
Leucyl-alanyl-leucyl-prolyl-glutaminyl-isoleucyl-glutamyl-asparaginyl-valyl-lysyl-glycyl-threonyl-glutamyl-aspartyl-serine Amide | 943 mg | 
Arginyl-glutamyl-asparaginyl-glutamyl-cysteinyl-valyl-seryl-cysteinyl-seryl-asparaginyl-cysteinyl-lysyl-lysyl-seryl-leucyl-glutamyl-cysteinyl-threonyl-lysyl-leucine |  | crude mass [3]: 652 mg
Acetyl-leucyl-phenylalanyl-glutaminyl-alanyl-phenylalanyl-asparaginyl-alanyl-seryl-leucyl-alanyl-leucyl-asparaginyl-glycyl-threonyl-valine Amide | 839 mg | 
Lysyl-glutaminyl-asparaginyl-threonyl-valyl-alanyl-threonyl-alanyl-histidyl-alanyl-glycyl-phenylalanyl-phenylalanyl-leucyl-arginine Amide | 743 mg | 
Glutaminyl-aspartyl-threonyl-aspartyl-alanyl-arginyl-glutamyl-alanyl-glutamyl-seryl-glycyl-seryl-phenylalanyl-threonyl-alanine Amide | 660 mg | 
Glycyl-prolyl-glycyl-glutaminyl-aspartyl-threonyl-aspartyl-alanyl-arginyl-glutamyl-alanyl-glutamyl-seryl-glycyl-serine Amide | 960 mg | 
Glutamyl-alanyl-glutamyl-seryl-glycyl-seryl-phenylalanyl-threonyl-alanyl-seryl-glutamyl-asparaginyl-histidyl-leucyl-arginine Amide | 783 mg | 
